# Screen size: about 340,000 compounds; about 170 (0.05%) were called active. Inconclusive means that the source gave no clear call. Such entries were picked first, then a sample of the others. Calls follow the shape of the dose curve; as a rule, active = well fitted inhibition curve with a large enough effect in the signal ratio, with a control signal flat (not every such curve was filed as active); inconclusive = small, poorly fitted or top-dose-only effect, or effect the other way, or a change in a side signal; inactive = flat fitted curve, though single readings scatter; the % refers to the signal ratio. A potency beside an inconclusive call is a rough fit, not a confirmed value.
# Assay: qHTS Assay to Find Inhibitors of Chronic Active B-Cell Receptor Signaling;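 as to activity change, negative = inhibition: plate controls were basal doxycycline-induced cells for no effect and cells given 10 µM MG132 for full effect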
# Settings: ABC-DLBCL IkBa-CBG/CBR reporter, luminescence ratio (green luciferase fused to IkBa over red control in TMD8 lymphoma cells), 4 h; activity change, negative = inhibition: at 46.1 µM (top of the series)
# Outline: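 Compounds up to 46 uM were incubated four hours with TMD8 cells whose green CBG68 luciferase is fused to IkappaBalpha; red CBR luminescence normalised the signal, and concentration-effect curves were fitted to fusion, red and ratio data.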
# Potency is read from the fitted curve at half-maximal effect.
Structure (SMILES),"activity change, negative = inhibition",Potency
COc1ccc(-n2ncc3c(NC(C)(C)CO)ncnc32)cc1,inactive: 20.3%,–
CCc1ccc(C2CC(=O)NC(SCC(=O)OC(C)C)=C2C#N)cc1 (stereo not given),inconclusive: 4.57%,–
Cc1ccccc1CSc1nc(-c2ccccc2)cc(=O)[nH]1,inconclusive: 4.11%,–
CN1CCN(C(c2cccc(Cl)c2)c2ccccc2Cl)CC1 (stereo not given),inactive: -1.01%,–
O=C(Nc1cccnc1N1CCOCC1)c1cccs1,inconclusive: 19.4%,–
COc1ccc(/C=N/NC(=O)c2cc(Br)ccc2O)cc1Cn1cc(Cl)cn1,–,"inconclusive: 2.31 µM [falling, partial curve]"
CC(=O)Nc1sc(C)c(C)c1C(=O)OCC(=O)NC(C)c1ccccc1 (stereo not given),inactive: 10.2%,–
CCC(=O)/C=C1/Sc2ccccc2N1CC,–,"inconclusive: 3.26 µM [falling, partial curve, poor fit]"
O=C(Nc1nnc(S(=O)(=O)N2CCCC2)s1)c1cccc([N+](=O)[O-])c1,inconclusive: 6.6%,–
O=C(Nc1ccc(Br)cc1)c1cnc[nH]1,inconclusive: -16.5%,–
O=C(CN1C(=O)c2ccccc2S1(=O)=O)c1ccc2c(c1)OCCO2,inactive: -16.1%,–
O=[N+]([O-])c1cc(Br)c2nsnc2c1N1CCOCC1,inconclusive: -1.44%,–
O=C1C(Cc2cccc([N+](=O)[O-])c2)S/C(=N/N=C/c2ccco2)N1c1ccccc1 (stereo not given),inconclusive: 10.5%,–
COc1ccc(Oc2ccccc2C=O)cc1,–,"inconclusive: 22.4 µM [falling, single point]"
O=C(NC1CCCc2ccccc21)c1n[nH]c(=O)c2ccccc12 (stereo not given),inactive: -5.01%,–
CC(/C=C/c1ccc(O)cc1)=N/O,–,"inconclusive: 5.17 µM [falling, full curve]"
CCN1/C(=C/C=C/C=C/c2sc3ccccc3[n+]2CC)Sc2ccccc21,–,"inconclusive: 28.2 µM [falling, single point]"
CC1CCc2[nH]c3ccc(C(=O)Nc4ccc(C(=O)N(C)C)cc4)cc3c2C1 (stereo not given),inconclusive: -2.82%,–
Cc1ccccc1NC(=S)Nc1ccc2cn[nH]c2c1,–,"inconclusive: 14.1 µM [falling, partial curve, poor fit]"
COc1ccc(NC(=O)Nc2nc3ccccc3s2)cc1,inconclusive: -12.6%,–

# Another view of three compounds above:
Structure (SMILES) | activity change, negative = inhibition | Potency
O=C1C(Cc2cccc([N+](=O)[O-])c2)S/C(=N/N=C/c2ccco2)N1c1ccccc1 (stereo not given) | inconclusive: 10.5% | –
COc1ccc(Oc2ccccc2C=O)cc1 | – | inconclusive: 22.4 µM [falling, single point]
O=C(NC1CCCc2ccccc21)c1n[nH]c(=O)c2ccccc12 (stereo not given) | inactive: -5.01% | –

# Carrying on.

Structure (SMILES),"activity change, negative = inhibition",Potency
CCOCCc1nnc(NC(=O)C2CC(=O)N(CCc3ccc(F)cc3)C2)s1 (stereo not given),inactive: 6.27%,–
Cc1c(Cl)cccc1NC(=O)CSc1nc2ncc(Cl)cc2[nH]1,inconclusive: 1.02%,–
CC(C)N(C(=O)c1ccc2nc(-c3ccccc3)c(-c3ccccc3)nc2c1)C(C)C,inactive: 5.57%,–
CCc1ccc(-c2nc(CN3CCC(C(=O)NCCc4ccc(OC)c(OC)c4)CC3)c(C)o2)cc1,inconclusive: 0.64%,–
COc1ccc(-n2nc([N+](=O)[O-])c(=NCc3cccnc3)n2O)cc1,inactive: 10.4%,–
NNC(=O)c1ccc(Cn2cccn2)o1,–,"inconclusive: 8.91 µM [falling, partial curve, poor fit]"
Cc1ccc(CN2CCCCC2C(=O)Nc2ccc(Oc3cccnc3)cc2)o1 (stereo not given),–,"inconclusive: 28.2 µM [falling, partial curve, poor fit]"
Cn1c(CNC(=O)c2ccc(F)cc2)nc2ccccc21,inconclusive: -12.7%,–
CCc1nc2ccccc2n1Cc1ccc(OC)c(OC)c1,inconclusive: -5.24%,–
N/C(Cc1ccc(Cl)cc1)=N\OC(=O)C1CCCCC1,inconclusive: 11.3%,–
CCOC(=O)c1nnn(CC(=O)Nc2cc(Cl)ccc2C)c1C(=O)OCC,inconclusive: -11.4%,–
O=C(Nc1ccccc1N1CCN(C(=O)c2ccccc2)CC1)c1ccc([N+](=O)[O-])o1,inactive: -1.69%,–
O=C(CSc1ncnc2nc[nH]c12)c1ccc(Cl)cc1,–,"inconclusive: 7.94 µM [falling, single point]"
Cc1cc(N2CCN(S(=O)(=O)c3ccc4ccccc4c3)CC2)n2ncnc2n1,inactive: -16.1%,–
COc1ccc(OC)c(Nc2nc(N)nc(-c3cc4ccccc4o3)n2)c1,inconclusive: 5.7%,–
CCN1CCSc2ccc(C(=O)NCc3ccccc3F)cc21,–,"inconclusive: 10 µM [falling, single point]"
CC(=O)NN1C(=O)/C(=C/c2ccc(C(C)C)cc2)SC1=S,inconclusive: 3.39%,–
Cn1c(=O)c2c(ncn2CC(=O)NC2CCCCC2)n(C)c1=O,inactive: -0.848%,–
COc1ccc(-c2c3c(cc4ncn(Cc5ccccc5)c24)COC3=O)cc1,–,"inconclusive: 25.9 µM [falling, partial curve]"
CC1=C(C)CC(C(=O)c2ccc(C)cc2)C(C(=O)O)C1 (stereo not given),inconclusive: 8.4%,–
